The values that follow come from patent US20230113823A1.

The assay has as its target cynomolgus transferrin receptor 1 (cyno TfR1) (cynomolgus monkey (Macaca fascicularis)). The assay is described as follows: worded comparison with control antibody 15G11.

No constants are given. Whether binding was seen depends on the method and setting. Some binding calls cover weakened binding; strength is not graded here.

B1: 8-K6 (antibody, V domains shown)
VH: QVHLQQPGAELVKPGASVKMSCKASGYTFTSYWITWVKQRPGQGLEWIGDIFPNSGRTNYDEKFKSKATLTVDTSSSTAYMQLSSLTSEDSAVYFCAREGNFGSLDYWGQGTTLTVSS
VL: QIVLTQSPAIMSASPGEKVTMTCSANSNLNYMNWYHQKSGTSPKRWIYDTSKLASGVPARFSASGSGTSYSLTISSMEAEDAATYYCQQWSRNPLTFGAGTRLELK
Turning to B1, the binding entry is “binds”.

B2: 9-D4 (antibody, V domains shown)
VH: QVQLQQSGTELARPGASVKLSCKASGFTFTDYGINWVKQRTGQGLEWIGEIYPSSGNSYYNEKFKAKATLTADKSSSTAYMELRSLTSEDSAVYFCARSTYYGSPIDYWGQGTTLTVSS
VL: DIVMTQSHKFMSTPVGDRVSITCKASQDVDTTVAWYQQKPGQSPKLLIYWASTRQIGVPDRFTGSGSGTDFTLTISNVQSEDLADYFCQQYSTYPLTFGGGTKLEIK
Turning to B2, the binding result is “binds”.

B3: 3-E5 (antibody, V domains shown)
VH: EIQMKQSGAELVKPGASVKISCKASGYSFTGYNMNWVKQSHGKSLEWIGNINPYYGSTGYNQKFKGKATLTVDKSSSTAYMQLNSLTSEDSAVYYCARGDYGYDEGTWFAYWGQGTLVTVSA
VL: DIVMSQSPSSLAVSAGEKVTMSCKSSQSLLNSRTRKNYLAWYQQKPEQSPKLLIYWASTRESGVPDRFTGSGSGTDFTLTISSVQAEDLAVYYCKQSYNLPFTFGSGTKLEIK
As for B3, the binding result is reported as “binds”.

B4: 3-M12 (antibody, V domains shown)
VH: DVQLQESGPGLVKPSQSLSLTCSVTGYSITSGYYWNWIRQFPGNKLEWMGYITFDGANNYNPSLKNRISITRDTSKNQFFLKLTSVTTEDTATYYCTRSSYDYDVLDYWGQGTTLTVSS
VL: DIQMTQTTSSLSASLGDRVTISCRASQDISNFLNWYQQRPDGTVKLLIYYTSRLHSGVPSRFSGSGSGTDFSLTVSNLEQEDIATYFCQQGHTLPYTFGGGTKLEIK
For the molecule B4, the binding entry is “binds”.

B5: 5-H12 (antibody, V domains shown)
VH: QIQLQQSGPELVRPGASVKISCKASGYSFTDYCINWVNQRPGQGLEWIGWIYPGSGNTRYSERFKGKATLTVDTSSNTAYMQLSSLTSEDSAVYFCAREDYYPYHGMDYWGQGTSVTVSS
VL: DIVLTQSPTSLAVSLGQRATISCRASESVDGYDNSFMHWYQQKPGQPPKLLIFRASNLESGIPARFSGSGSRTDFTLTINPVEAADVATYYCQQSSEDPWTFGGGTKLEIK
With B5, the binding entry was “binds”.

B6: 3-A4 (antibody, V domains shown)
VH: EVQLQQSGAELVRPGASVKLSCTASGFNIKDDYMYWVKQRPEQGLEWIGWIDPENGDTEYASKFQDKATVTADTSSNTAYLQLSSLTSEDTAVYYCTLWLRRGLDYWGQGTSVTVSS
VL: DIVMTQAAPSVPVTPGESVSISCRSSKSLLHSNGYTYLFWFLQRPGQSPQLLIYRMSNLASGVPDRFSGSGSGTAFTLRISRVEAEDVGVYYCMQHLEYPFTFGGGTKLEIK
As for B6, the binding entry is reported as “binds”.
